Results: publication PMC11997338

Target: T1, hemagglutinin (HA)-tagged endoglin (ENG) (UniProt P17813)
T1 sequence: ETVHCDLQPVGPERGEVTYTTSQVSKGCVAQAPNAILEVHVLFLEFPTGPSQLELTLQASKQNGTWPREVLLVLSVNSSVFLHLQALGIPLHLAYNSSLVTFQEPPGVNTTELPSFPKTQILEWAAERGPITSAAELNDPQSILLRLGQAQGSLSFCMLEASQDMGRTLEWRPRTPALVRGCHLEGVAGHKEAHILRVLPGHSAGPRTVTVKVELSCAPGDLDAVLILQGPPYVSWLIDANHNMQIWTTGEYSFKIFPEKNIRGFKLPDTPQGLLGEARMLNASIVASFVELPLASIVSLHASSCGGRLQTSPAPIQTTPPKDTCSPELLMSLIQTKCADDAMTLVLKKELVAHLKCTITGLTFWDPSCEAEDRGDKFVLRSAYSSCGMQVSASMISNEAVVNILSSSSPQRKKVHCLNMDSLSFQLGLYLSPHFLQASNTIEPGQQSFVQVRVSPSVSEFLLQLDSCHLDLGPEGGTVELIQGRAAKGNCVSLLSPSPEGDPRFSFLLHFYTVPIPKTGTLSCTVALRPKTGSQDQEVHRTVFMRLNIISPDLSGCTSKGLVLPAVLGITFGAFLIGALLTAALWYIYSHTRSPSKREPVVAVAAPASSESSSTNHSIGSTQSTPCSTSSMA
Experiment: proximity ligation; HEK293T cells with ENG-HA overexpression incubated with recombinant His-tagged DSP protein (0.5 μg/ml) at 37 °C for 1 h, fixed; anti-6X His and anti-ENG antibodies; Duolink in situ PLA; only the binder purified

| Substance | binding |
| --- | --- |
| recombinant DSP_(aa34–50)-His protein (domain or fragment) | binds |
| recombinant DSP_(Δ34–50)-His protein | no binding (tested: 0.5 μg/ml) |
| recombinant full-length DSP-His protein | binds |

Results are given in words; binding and its absence hold for the method and conditions named. In cells and extracts the contact can be indirect. A result given as binding can be weak or reduced; the word gives no strength. Where a sequence is shown, tags or fusion partners need not be part of it.
